# Record: PubChem BioAssay AID1259254 (NCATS, 2017)
# Assay: 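Genome-wide screen for genes that prevent DNA re-replication in cancer cells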 (primary screen)
# Cells: human HCT116 colorectal cancer cells
# Reagent: single siRNA against human genes
# Timing: 3 days
# Measured: 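Nuclei stained with Hoechst and imaged; cell-cycle phase assigned by DNA content; G2 share scaled per plate, non-targeting siRNA 0%, GMNN siRNA 100%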
# Reading the numbers: G2 robust z-score: higher = more G2 cells, more excess DNA replication
# Active means: 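Active siRNAs have a G2 robust z of 5 or more median absolute deviations over the median, which in these data means about 38% or higher of GMNN control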
# The whole screen tested about 59,000 reagents; this is an unselected part. About 1,550 of all reagents (2.6%) were called active. 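G2 share is only a proxy for re-replication; each gene was hit by three separate siRNAs, and active genes were retested.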 A number with no mark means an inactive call. Not all columns of the deposit are shown. Not given: the amount of reagent.
gene,PubChem SID,G2 robust z-score
TFAM,SID160717928,-1.01
TFAM,SID160717929,1.29
TFAM,SID160717930,-0.505
KCNA3,SID160776110,-0.892
KCNA3,SID160776111,-0.482
KCNA3,SID160776112,0.0797
NAGLU,SID160777761,-0.246
NAGLU,SID160777762,-0.116
NAGLU,SID160777763,0.632
SLC25A33,SID160752026,1.84
SLC25A33,SID160752028,0.199
SLC25A33,SID160752029,-0.66
TMT1B,SID160760612,0.13
TMT1B,SID160760613,0.264
TMT1B,SID160760614,2.69
HIF3A,SID160747682,0.197
HIF3A,SID160747683,0.321
HIF3A,SID160747684,2.64
TRIM21,SID160717365,4.84
TRIM21,SID160717366,2.96
TRIM21,SID160717367,-0.537
MRPL54,SID160724745,0.747
MRPL54,SID160732359,-0.151
MRPL54,SID160755458,0.047
HNRNPCP2,SID160726397,-0.128
HNRNPCP2,SID160726398,1.66
HNRNPCP2,SID160728030,-0.0178
RNGTT,SID160720697,-0.998
RNGTT,SID160720698,0.61
RNGTT,SID160720699,-0.778

Targets above whose target name starts with M or m:
gene,PubChem SID,G2 robust z-score
MRPL54,SID160724745,0.747
MRPL54,SID160732359,-0.151
MRPL54,SID160755458,0.047

Further reagents follow:
gene,PubChem SID,G2 robust z-score
LEF1,SID160740251,0.1
LEF1,SID160740252,1.4
LEF1,SID160740253,0.277
CAPS2,SID160752620,-0.955
CAPS2,SID160752621,-0.0358
CAPS2,SID160752622,-0.862
HLA-F,SID160775024,1.6
HLA-F,SID160775025,0.451
HLA-F,SID160775026,1.59
ACBD7,SID160731216,-0.531
ACBD7,SID160767577,-0.453
ACBD7,SID160767578,-0.887
ANKRD12,SID160735843,-0.886
ANKRD12,SID160735844,0.0591
ANKRD12,SID160735845,-0.465
SEPTIN14,SID160764894,-0.548
SEPTIN14,SID160764895,-1.23
SEPTIN14,SID160764897,0.821
CLDN17,SID160737914,1.54
CLDN17,SID160737915,-0.468
CLDN17,SID160737916,0.0424
DPYD,SID160730718,-1.16
DPYD,SID160756068,5.62 (active)
DPYD,SID160756087,-0.382
ZNF385D,SID160749356,0.155
ZNF385D,SID160749357,-1.39
ZNF385D,SID160749358,1.21
ATP13A5,SID160764826,-0.398
ATP13A5,SID160764827,1.08
ATP13A5,SID160764828,0.967
PLSCR1,SID160714505,0.268
PLSCR1,SID160714506,-0.865
PLSCR1,SID160714507,-0.711
NOC2L,SID160732858,0.589
NOC2L,SID160737719,0.556
NOC2L,SID160737720,0.689
CACNA1E,SID160731896,-1.08
CACNA1E,SID160735298,0.86
CACNA1E,SID160735309,0.125
NCKIPSD,SID160740919,-1.62
NCKIPSD,SID160740921,-1.04
NCKIPSD,SID160740922,2.41
ABCC2,SID160745165,5.42 (active)
ABCC2,SID160745176,-0.0517
ABCC2,SID160745187,1.01
PSD3,SID160736109,0.703
PSD3,SID160736110,-0.122
PSD3,SID160736111,5.72 (active)
FOXD3,SID160724357,-0.92
FOXD3,SID160724359,-0.288
FOXD3,SID160724360,-0.37
ALDH3B1,SID160716352,0.44
ALDH3B1,SID160716362,7.33 (active)
ALDH3B1,SID160716374,0.665
GRM8,SID160774598,-1.2
GRM8,SID160774599,-0.73
GRM8,SID160774600,1.35
